Holding throughout (experiment): co-IP
For test [1], the target named is T1, Flag-PLK4 full length (wild type) (human) (UniProt O00444).
T1 sequence: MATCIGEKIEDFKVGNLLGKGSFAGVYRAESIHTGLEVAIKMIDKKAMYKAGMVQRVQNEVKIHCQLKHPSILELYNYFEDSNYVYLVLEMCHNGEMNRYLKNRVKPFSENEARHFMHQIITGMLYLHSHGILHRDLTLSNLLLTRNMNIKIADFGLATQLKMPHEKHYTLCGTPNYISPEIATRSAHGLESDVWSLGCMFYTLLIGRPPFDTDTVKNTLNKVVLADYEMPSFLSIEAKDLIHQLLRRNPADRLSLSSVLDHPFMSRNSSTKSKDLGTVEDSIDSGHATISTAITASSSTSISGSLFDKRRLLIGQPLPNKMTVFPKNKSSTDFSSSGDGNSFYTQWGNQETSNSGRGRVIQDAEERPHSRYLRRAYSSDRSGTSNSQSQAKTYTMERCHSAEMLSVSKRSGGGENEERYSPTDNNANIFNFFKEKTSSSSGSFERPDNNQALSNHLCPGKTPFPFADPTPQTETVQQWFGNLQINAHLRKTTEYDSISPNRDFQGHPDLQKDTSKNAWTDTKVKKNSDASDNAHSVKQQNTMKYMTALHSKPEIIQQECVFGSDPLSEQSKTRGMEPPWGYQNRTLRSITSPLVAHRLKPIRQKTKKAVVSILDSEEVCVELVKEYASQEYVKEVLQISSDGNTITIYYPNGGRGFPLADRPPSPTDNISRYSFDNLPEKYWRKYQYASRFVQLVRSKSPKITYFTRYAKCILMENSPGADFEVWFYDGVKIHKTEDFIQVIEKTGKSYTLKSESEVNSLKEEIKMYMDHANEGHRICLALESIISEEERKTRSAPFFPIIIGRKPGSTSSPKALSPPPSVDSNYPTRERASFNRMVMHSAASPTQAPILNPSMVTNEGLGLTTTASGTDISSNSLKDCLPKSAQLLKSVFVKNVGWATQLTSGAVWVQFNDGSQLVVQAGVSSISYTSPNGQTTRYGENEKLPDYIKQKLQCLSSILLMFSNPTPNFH

The chains behind the UniProt entries cited, without tags or fusion partners.
UniProt Q9Y4B6: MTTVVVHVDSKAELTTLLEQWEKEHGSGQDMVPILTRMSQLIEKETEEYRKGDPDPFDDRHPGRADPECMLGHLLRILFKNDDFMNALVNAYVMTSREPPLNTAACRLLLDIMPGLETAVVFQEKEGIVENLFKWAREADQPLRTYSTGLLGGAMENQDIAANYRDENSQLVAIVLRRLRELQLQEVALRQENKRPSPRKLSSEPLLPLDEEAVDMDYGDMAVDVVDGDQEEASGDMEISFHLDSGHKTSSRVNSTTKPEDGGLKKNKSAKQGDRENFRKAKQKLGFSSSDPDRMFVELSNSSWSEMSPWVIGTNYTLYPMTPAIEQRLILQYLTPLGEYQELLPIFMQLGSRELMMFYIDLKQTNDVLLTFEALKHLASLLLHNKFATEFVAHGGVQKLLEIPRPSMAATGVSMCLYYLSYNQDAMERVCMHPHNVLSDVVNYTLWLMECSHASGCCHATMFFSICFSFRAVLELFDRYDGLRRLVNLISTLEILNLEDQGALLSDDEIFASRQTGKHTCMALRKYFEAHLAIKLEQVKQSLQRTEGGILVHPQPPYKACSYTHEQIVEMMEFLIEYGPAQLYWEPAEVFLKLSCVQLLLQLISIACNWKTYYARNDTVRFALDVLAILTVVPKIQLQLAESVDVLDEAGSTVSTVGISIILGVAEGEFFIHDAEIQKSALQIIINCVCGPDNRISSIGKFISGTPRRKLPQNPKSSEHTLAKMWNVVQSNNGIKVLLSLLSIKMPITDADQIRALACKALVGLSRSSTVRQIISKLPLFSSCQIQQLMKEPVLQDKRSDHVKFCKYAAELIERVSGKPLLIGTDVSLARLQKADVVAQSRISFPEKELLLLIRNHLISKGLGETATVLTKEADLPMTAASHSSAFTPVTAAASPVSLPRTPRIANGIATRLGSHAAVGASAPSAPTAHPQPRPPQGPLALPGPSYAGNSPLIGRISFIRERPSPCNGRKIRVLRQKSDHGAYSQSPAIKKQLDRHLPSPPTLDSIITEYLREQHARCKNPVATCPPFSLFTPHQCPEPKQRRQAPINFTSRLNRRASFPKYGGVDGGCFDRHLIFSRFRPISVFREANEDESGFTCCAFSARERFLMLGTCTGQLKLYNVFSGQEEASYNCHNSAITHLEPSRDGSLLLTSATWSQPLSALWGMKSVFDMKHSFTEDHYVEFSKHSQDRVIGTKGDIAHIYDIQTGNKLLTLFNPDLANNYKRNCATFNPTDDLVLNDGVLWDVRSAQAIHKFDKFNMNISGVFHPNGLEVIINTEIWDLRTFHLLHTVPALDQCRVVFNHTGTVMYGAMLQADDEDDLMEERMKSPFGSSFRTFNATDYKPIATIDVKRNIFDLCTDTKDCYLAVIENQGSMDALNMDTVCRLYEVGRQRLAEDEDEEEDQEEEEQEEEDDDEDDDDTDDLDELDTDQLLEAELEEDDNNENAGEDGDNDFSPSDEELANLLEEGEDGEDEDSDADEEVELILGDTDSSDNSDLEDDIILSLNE

For test [2], the target named is Flag-PLK4-ΔPEST (human) (UniProt O00444).
The target of test [3] is T2, Flag-PLK4-AA (S285A+T289A) (human) (UniProt O00444).
T2 sequence: T1 sequence with S285A, T289A

Test [4] deals with T3, Flag-PLK4, immunoprecipitated and dephosphorylated with λ-phosphatase (human) (UniProt O00444).
T3 sequence (chain, dephosphorylated with λ-phosphatase): T1 sequence

The target of test [5] is T4, Flag-PLK4 K41R (kinase-dead) (human) (UniProt O00444).
T4 sequence: T1 sequence with K41R

The target in test [6] is Flag-DCAF1 WD40 domain alone.

Where a chain is given by its changes, count along the chain named. No constants are given. Whether binding was seen depends on the method and setting. In cells and extracts the contact can be indirect. For some of these results: Binding calls can cover weak binding; strength is not graded here. For some of these results: Tags and fused reporters may be left off the sequences shown.

On to CUL4 (human (endogenous in HEK293T)), for which, in test [1], the binding entry is “binds”.

Regarding “DCAF1 (endogenous) (from UniProt Q9Y4B6 1-1507)”, the binding result in test [2] was “binds”.

As for “β-TrCP (endogenous) (human (endogenous in HEK293T))”, the binding entry in test [3] was “no binding”; in test [4], “binds”; in test [1], “binds”; in test [5], “no binding”.

B1: PLK4 (endogenous) (protein, UniProt O00444 1-970)
chain: T1 sequence
Turning to B1, the binding entry in test [6] is reported as “no binding”.

The values are drawn from doi:10.1101/2023.09.13.555514.
